Results as given in PubChem BioAssay AID1347423 (Functional Genomics Laboratory (NCATS/FGL), 2020).
The campaign covered roughly 52,000 sequences. About 210 (0.4%) were called active.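 Rule for the calls: active = gene whose silencing raises cell survival under the drug, median off-target-corrected z-score across its silencing RNAs 2 or more; inactive = the rest.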 The list shows a part of the results.

Test: Resistance to Poly (ADP-Ribose) Polymerase inhibitor: Gene Identification via Genome-wide siRNA Screen
Details: mouse BRCA2 R2336H ES cells, olaparib, CellTiter-Glo viability; hits give high values
In short: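 Genome-wide siRNA screen (3 siRNAs/gene, 20 nM) in mouse ES cells carrying hypomorphic BRCA2 R2336H; olaparib 500 nM added 48 h post-transfection, CellTiter-Glo viability 72 h later. Normalized to plate-median negative control; MAD z-scores, gene median, seed-adjusted.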

Sequence | z-score
CGCGCUGCCAGAUACACUATT against Hist1h2bg | inactive: 0.26
GCUUAGCCAUCAAUGAGGATT against Cog6 | inactive: -1.53
GGUGGUCCAGAAUUUUGCATT against Cotl1 | inactive: 0.677
GGUUACUUUUAUCCUGAAUTT against Hrasls | inactive: 0.396
CCCUUUGUGUCCUAGAUUGTT against Tex27 | inactive: 0.164
GGAACUUUUCAUCCUGAAGTT against Fgl1 | inactive: -0.334
GCUCUGUCGUGAAGAAUGCTT against F11 | inactive: -1.15
GGAACUAUAUACGAUGAUGTT against Usp8 | inactive: -0.657
GGAGAUUCACUUUCUAUCUTT against C76566 | inactive: 1.21
GGUGGACAACGUGUUUGACTT against 9430023L20Rik | inactive: 0.163
GGAUACCUACCUGGACAGUTT against Dlgap4 | inactive: -2.03
GCUGGAAAUGACACUGCCUTT against C1qtnf7 | inactive: -1.73
CGUGAUUAUGGUCGGUGCUTT against Ube2m | inactive: 0.6
CGAGCGACUAGAAAAUGACTT against Tusc4 | inactive: -0.223
GGCAGAGCAUUUUGAUUUUTT against Cstf2t | inactive: -1.05
GGAACUGUCAAACUGAUUUTT against Tlm | inactive: -0.447
GCAAAUCCCUCACUAAUUUTT against 2410004N11Rik | inactive: -0.486
CGUUGGUUGAUUAUUACCUTT against Tsc1 | inactive: 0.447
GCAACAAUGGUAACCCUCCTT against Ctsg | inactive: 0.448
GCGGACUAGCAGAGCUAUUTT against Dgkq | inactive: -0.988
GGCCUUCCUUCCCUUAGAGTT against D4Ertd196e | inactive: 1.48
GCUUACCUAACAAAUACAATT against Ptplb | inactive: -1.37
GAGCACAUCAUGGAACAUCTT against Mcfd2 | inactive: -0.0387
GGAGAAACUUAAGAGGCUUTT against Trp53bp2 | inactive: -1.42
GCCACAAGAAUCUCAUUGUTT against C130046B21Rik | inactive: -0.569
CCCUGCAUUAGAAAUUGAATT against Sst | inactive: 0.811
GCUACUUCAUGGAAUCUUCTT against Mrgprb8 | inactive: -0.283
GCCUAUCAUUAACAAGUCATT against A430033K04 | inactive: 0.829
GGCCUAAGCAAGUUGCGCATT against Fbxl8 | inactive: 1.69

Not a retest: entries from further up.
Sequence | z-score
GGUGGUCCAGAAUUUUGCATT against Cotl1 | inactive: 0.677
GGUUACUUUUAUCCUGAAUTT against Hrasls | inactive: 0.396
